From patent US20220144905A1
Results are given in words; binding and its absence hold for the method and conditions named. Some entries that bind do so weakly or less than the wild type.

The chains behind the UniProt entries cited, without tags or fusion partners. Where a name states a change or a piece, a line headed by the entry shows the natural chain unless it says otherwise.
UniProt O14964: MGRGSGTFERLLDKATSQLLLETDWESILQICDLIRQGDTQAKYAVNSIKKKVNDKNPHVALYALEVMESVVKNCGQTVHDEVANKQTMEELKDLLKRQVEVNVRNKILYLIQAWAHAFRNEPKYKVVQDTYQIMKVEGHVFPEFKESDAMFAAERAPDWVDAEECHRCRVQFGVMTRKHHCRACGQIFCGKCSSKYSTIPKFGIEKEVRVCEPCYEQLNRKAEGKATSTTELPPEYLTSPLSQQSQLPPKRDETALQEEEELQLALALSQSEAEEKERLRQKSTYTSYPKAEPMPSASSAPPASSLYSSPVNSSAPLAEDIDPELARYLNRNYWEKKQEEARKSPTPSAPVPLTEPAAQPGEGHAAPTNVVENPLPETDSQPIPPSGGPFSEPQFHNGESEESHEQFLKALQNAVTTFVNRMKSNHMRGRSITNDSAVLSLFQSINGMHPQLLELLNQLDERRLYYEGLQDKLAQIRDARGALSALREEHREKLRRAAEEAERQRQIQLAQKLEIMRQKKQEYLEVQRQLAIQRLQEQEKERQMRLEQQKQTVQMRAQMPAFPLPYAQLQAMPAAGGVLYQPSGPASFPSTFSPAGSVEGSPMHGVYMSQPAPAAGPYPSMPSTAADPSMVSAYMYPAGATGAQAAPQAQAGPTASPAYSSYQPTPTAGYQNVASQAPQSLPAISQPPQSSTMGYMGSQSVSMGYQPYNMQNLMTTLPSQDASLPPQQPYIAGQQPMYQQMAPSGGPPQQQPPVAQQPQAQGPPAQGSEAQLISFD

These binders were tested against Glutathione S-transferase (GST)-labeled HGS (Human) Recombinant Protein (Abnova) (human) (UniProt O14964) (assay: SPR (ProteOn XPR36), GST-labeled protein immobilized on GLH chip, GST as blank).

binding	Binder
binds	VQRQLAIQRL [OP10-527]
binds	RRLYYEGLQD [OP10-463]
binds	QIQLAQKLEI [OP10-507]
